# Laboratory results: PubChem BioAssay AID1259354 (Paczesny and Yang Labs, IUPUI and University of Michigan, 2018)
# By UniProt entry, the sequences of proteins in these tests, tags left out. Where a name states a change or a piece, a line headed by the entry shows the natural chain unless it says otherwise.
# UniProt Q01638: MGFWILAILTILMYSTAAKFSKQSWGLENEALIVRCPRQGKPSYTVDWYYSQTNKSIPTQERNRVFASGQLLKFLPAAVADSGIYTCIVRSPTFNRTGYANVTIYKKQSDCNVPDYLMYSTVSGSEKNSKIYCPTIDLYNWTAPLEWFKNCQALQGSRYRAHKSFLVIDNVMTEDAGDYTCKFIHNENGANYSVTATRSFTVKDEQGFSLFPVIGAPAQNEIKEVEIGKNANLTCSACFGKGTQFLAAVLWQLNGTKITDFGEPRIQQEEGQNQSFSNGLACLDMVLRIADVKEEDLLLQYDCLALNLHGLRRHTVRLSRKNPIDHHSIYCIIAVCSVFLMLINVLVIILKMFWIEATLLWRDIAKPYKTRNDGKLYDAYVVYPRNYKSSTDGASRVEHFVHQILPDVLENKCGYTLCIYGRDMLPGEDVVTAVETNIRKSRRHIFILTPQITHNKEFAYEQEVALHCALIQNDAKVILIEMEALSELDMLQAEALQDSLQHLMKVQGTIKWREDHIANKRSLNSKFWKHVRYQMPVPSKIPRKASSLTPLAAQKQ
# Hit rate of the full screen: of about 78,000 compounds, about 1,800 (2.3%) were called active. This list was built around the results that the source calls inconclusive (neither active nor inactive); the mix of calls is not that of the screen. No stated cut-off is given here; in the data, active means inhibition above about 30%; inconclusive means mostly about 10% to 28%; inactive means weaker than that.
# Biological target: Interleukin-1 receptor-like 1 (Homo sapiens) (UniProt Q01638)
# Assay: blocks human ST2 binding to IL-33, primary screen, biochemical, AlphaLISA (AID 1259354)
# Details: AlphaLISA ST2-Fc/biotin-IL-33 interaction, 1 h; at 17 µM, stronger effect = higher value
row,SMILES,inhibition
1,O=c1[nH]nc(SCc2ccc(Br)cc2)c(=O)[nH]1,inactive
2,C=CCN1CC(C(=O)NCc2ccc(N3CCCC3=O)cc2)CC1=O (stereo not given),inconclusive: 10%
3,COc1ccccc1NS(=O)(=O)c1ccc(Oc2ccc([N+](=O)[O-])cc2)cc1,inactive
4,Cc1nnc(Sc2cc(C(=O)NCCN(C)Cc3ccccc3)c3ccccc3n2)s1,inconclusive: 18%
5,COc1c(O)cc2oc(-c3ccc(O)cc3)c(O[C@@H]3O[C@H](CO[C@@H]4O[C@@H](C)[C@H](O)[C@@H](O)[C@H]4O)[C@@H](O)[C@H](O)[C@H]3O[C@@H]3O[C@@H](C)[C@H](O)[C@@H](O)[C@H]3O)c(=O)c2c1O,inconclusive: 20%
6,Nc1ccc(C(=O)c2ccccc2)cc1[N+](=O)[O-],inconclusive: 20%
7,COc1cc(Cl)c(C)cc1NC(=O)CN1C(=O)c2ccccc2C1=O,inconclusive: 10%
8,CC(CNc1ccnc(C(=O)NCc2cccnc2)c1)c1ccccc1 (stereo not given),inconclusive: 15%
9,CCCOC(=O)C1=C(C)NC2=C(C(=O)CC(C)(C)C2)C1c1ccc(OC)c(OC)c1OC (stereo not given),inactive
10,CC1=C[C@@H](CN(C)Cc2cccnc2)[C@H](C(C)C)C[C@H]1Cc1nnc(COc2ccc(F)cc2)o1,inconclusive: 17%
11,Nc1cc(-c2cccc(C3CCCN3)c2)c2cc[nH]c2n1 (stereo not given),inconclusive: 22%
12,COCCNC(=O)c1ccc(CS(=O)(=O)c2ccccc2)o1,inactive
13,COc1cc(NC(=O)N[C@H]2CO[C@H]3[C@@H]2OC[C@H]3OCC(N)=O)cc(OC)c1,inconclusive: 10%
14,O=C(c1ccc2nc(-c3ccco3)c(-c3ccco3)nc2c1)N(CCO)c1ccccc1,inconclusive: 24%
15,Cn1ccnc1CN(CCn1c(=O)oc2ccccc21)C1CC1,inconclusive: 14%
16,O=[N+]([O-])c1ccc(CN2C[C@H](O)C[C@H]2c2nc(-c3ccc(OC(F)(F)F)cc3)no2)cc1,inactive
17,COc1ccc(-c2csc(=Nc3ccccc3)n2CCO)cc1F,active: 48%
18,CC(=Nc1cccc([N+](=O)[O-])c1)C1=C(O)c2ccccc2C1=O,inconclusive: 20%
19,Cc1nn(-c2ccccn2)c(C)c1[C@@H]1C=C[C@@H](NC(=S)NCC(C)C)C1,inactive
20,O=c1/c(=C/c2ccc(F)c(Br)c2)sc2nc3ccccc3n12,inconclusive: 15%
21,CCc1ccc(N(CC(=O)Nc2cccc(SC)c2)S(C)(=O)=O)cc1,inconclusive: 10%
22,COCC(=O)NC[C@@H]1C=C(C)[C@H](CC(=O)N(C)Cc2cccnc2)C[C@H]1C(C)C,inconclusive: 17%
23,CC(=O)c1[nH]c(C)c(C(=O)N2CCCN(CC3CC3)C(C(C)C)C2)c1C (stereo not given),inconclusive: 20%

row,SMILES,inhibition
1,Cc1nc2ccccc2c2c1C(=O)N(c1ccc(F)cc1)C2=O,inconclusive: 15%
2,COc1ccc(-c2noc(Cn3nc(C)c(C)c3C)n2)c(OC)c1OC,inconclusive: 24%
3,CN(C)C(=O)c1nn(Cc2ccccc2)c2c1CN(C(=O)Cc1ccc3c(c1)OCO3)CC2,inconclusive: 14%
4,CCOC(=O)CC(=O)CN1C(=O)c2ccccc2C1=O,inconclusive: 12%
5,O=C(CN1C(=O)C(=O)c2ccccc21)Nc1ccccc1F,inconclusive: 18%
6,COc1ccccc1N1CCN(CCN(C(=O)C2CCCCC2)c2ccccn2)CC1,inconclusive: 12%
7,CN(C)CC1(O)CCN(C(=O)CCc2ccc3c(c2)OCO3)C1 (stereo not given),inactive
8,O=S(=O)(N[C@H]1CO[C@H]2[C@@H]1OC[C@@H]2Nc1nccc(-c2cccc(F)c2)n1)c1cccc2cccnc12,inconclusive: 10%
9,CN(C(=O)Cn1nnnc1CN1CCOCC1)C1CCCc2ccccc21 (stereo not given),inactive
10,CC(C)(O)C#Cc1ccc(C#Cc2ccc(C#CC(C)(C)O)cc2)cc1,inactive
11,CCSc1nc(CC(=O)NC(C)C(=O)Nc2cc(F)ccc2C)cs1 (stereo not given),inactive
12,COc1ccc(-c2nc(SCC(=O)NCc3ccco3)c(-c3ccc(OC)cc3)[nH]2)cc1,inactive
13,COc1ccc(Oc2nc3c(c(=O)n(C)c(=O)n3C)n2Cc2ccc(Br)cc2)cc1,inconclusive: 15%
14,Cc1ccc(C(=O)Nc2c3c(nn2-c2ccc(C)cc2)CSC3)cc1,inactive
15,Cc1cc(NC(=O)CSc2n[nH]c(C)c2[N+](=O)[O-])no1,inactive
16,Cc1ccc(S(=O)(=O)N2CCCCCC2)cc1[N+](=O)[O-],inconclusive: 13%
17,CC(=O)N(CCCN(C)C)C(C)c1cc(C(C)(C)C)cc2c1CCC2(C)C (stereo not given),inconclusive: 23%
18,O=C(COc1nsnc1N1CCCCC1)Nc1ccc(Br)cc1,inconclusive: 22%
19,CCCN(c1ccc(C(C)C)cc1)S(=O)(=O)c1ccc2c(c1)c(=O)n(C)c(=O)n2C,inconclusive: 10%
20,O=C(NCc1cccc(Cl)c1)c1ccc2nc3cc(Cl)ccc3c(=O)n2c1,inconclusive: 13%
21,COC(=O)c1ccc(CN2CCN(CC3CCCCC3)C(CCO)C2)cc1 (stereo not given),inactive
22,CCOc1cc(/C=C2/C(=N)N3C=CSC3=NC2=O)ccc1OCCCOc1ccc(OC)cc1,inconclusive: 17%
23,CCn1cc(C(=O)N2CCC3(CCCN(C)CC3)CC2)c(=O)c2ccc(C)nc21,inconclusive: 14%

row,SMILES,inhibition
1,CCNC(=O)c1cc2c(=O)n3ccccc3nc2n(C(C)C)c1=N,inconclusive: 16%
2,C=CC[C@@H]1CC=C[C@@H](C)N1C(=O)c1cnc2sc(C)c(C)n2c1=O,inactive
3,Cc1nc(N2CCN(c3ccc(F)cc3)CC2)c2c(C)c(C)sc2n1,inactive
4,COc1ccc(C)cc1NC(=O)c1cnc(N2CCN(c3ccccn3)CC2)c2ccccc12,inconclusive: 23%
5,COc1ccc(-c2nc3ccc(Br)cc3c(=O)o2)cc1,inactive
6,COc1cc2c(cc1OC)C(C(=O)NC1CCCCCC1)C(c1cccs1)N(C)C2=O (stereo not given),inactive
7,COc1ccccc1Oc1nc2c(c(=O)n(C)c(=O)n2C)n1Cc1ccc(Br)cc1,inconclusive: 11%
8,Cc1cc2c(cc1C)NC(c1ccc([N+](=O)[O-])cc1)C1=C(CC(C)(C)CC1=O)N2 (stereo not given),inconclusive: 18%
9,CSc1ccc(C2C(C(=O)OC3CCCCC3)=C(C)Nc3nnnn32)cc1 (stereo not given),inactive
10,COc1cc(CN2CCOCC2)cc2c1OCO2,inactive
11,COc1cc(N2C(=O)c3ccc(F)cc3C2=O)cc(OC)c1OC,inconclusive: 10%
12,CC(C)n1cnc2cc(NCc3ccc(Cl)cc3)ccc21,inconclusive: 14%
13,Cc1nc(Cc2ccc(-n3ccnc3-c3ccc(CO)o3)cc2)n[nH]1,inconclusive: 16%
14,O=C(O)C1CN(c2ncccn2)CCN1C(=O)CCc1cccnc1 (stereo not given),inactive
15,Cc1ccc(C2C(C#N)=C(N)SC(N)=C2C#N)o1,active: 32%
16,CCOc1ccc(/C=C2\CS/C(=C\c3ccc(OCC)cc3)C2=O)cc1,inconclusive: 21%
17,Cc1ccc(C2CC(c3cccs3)=NN2C(=O)c2ccc(Br)o2)cc1 (stereo not given),inconclusive: 28%
18,CCOc1ccc(-n2c(=O)c3sccc3n(CC(=O)C(C)(C)C)c2=O)cc1,inconclusive: 18%
19,NC1CCCN(c2cnc3ccccc3n2)CC1 (stereo not given),inconclusive: 14%
20,O[C@@H]1CN(Cc2cncn2Cc2ccccc2)CC[C@H]1c1ccc(F)cc1,inactive
21,COc1ccc(N(C(=O)c2cc(C)cc(C)c2)C2C=CS(=O)(=O)C2)cc1 (stereo not given),inactive
22,COc1cc(NCC2(c3ccccc3)CCN(C)CC2)ncn1,active: 31%
23,Cc1ccc2oc(C(=O)N(C)Cc3cccc(-n4cccn4)c3)c(C)c2c1,inactive

row,SMILES,inhibition
1,CC(=O)N1CCN(c2ncccc2CNC(=O)c2cc(-c3ccccc3)n[nH]2)CC1,inconclusive: 18%
2,Cc1ccc(F)c(N2C(=O)c3c(C)nc4ccccc4c3C2=O)c1,inconclusive: 14%
3,CC(=O)Nc1ccc(OCC(=O)Nc2c(C)cccc2C)cc1,inactive
4,Cc1ccc(OCCOc2ccc([N+](=O)[O-])cc2/C=C2\C(=O)NN(c3ccccc3)C2=O)cc1,inconclusive: 27%
5,CCc1ccc(C2C(C#N)=C(N)OC3=C2C(=O)CCC3)cc1 (stereo not given),inconclusive: 10%
6,CC(=O)Nc1ccc(S(=O)(=O)N[C@H]2CO[C@H]3[C@@H]2OC[C@@H]3n2nnnc2Oc2ccc3c(c2)OCO3)cc1,inconclusive: 18%
7,Cc1nc(C)n(CCCNC(=O)c2cnc3ccnn3c2C)n1,inconclusive: 12%
8,CCOC(=O)COc1ccc2oc(C)c(C(=O)OCC)c2c1,inactive
9,Cc1noc(C)c1CNC(=O)c1nn(C)c(=O)c2ccccc12,inconclusive: 20%
10,Cc1nn(CC(=O)N2CCC(O)(CN(C)C)C2)c(=O)c2ccccc12 (stereo not given),inconclusive: 12%
11,COc1cc(-c2nc3cnccn3c2Nc2ccc3c(c2)OCCO3)ccc1O,inactive
12,CCc1nc(C)c(C(=O)N2CCCC(c3[nH]ncc3-c3ccc(C)cc3)C2)o1 (stereo not given),inconclusive: 25%
13,C1=C(c2ccccn2)NN=C(c2ccccn2)C12c1ccccc1Oc1ccccc12,inconclusive: 20%
14,C=C1C2=C(C(=O)N1OC)[C@H](O)[C@](C)(O)[C@H](CCCCC)O2,inconclusive: 13%
15,COc1ccc2[nH]c(=O)c(CN(C)CCc3ccccn3)cc2c1,inconclusive: 20%
16,Oc1oc(-c2ccccc2F)nc1C=Nc1ccccc1I,inconclusive: 26%
17,COc1ccc(C)cc1N(CC(=O)NCc1ccccn1)S(C)(=O)=O,inconclusive: 11%
18,CCn1c(CC2CCN(Cc3cccnc3OC)CC2)n[nH]c1=O,inconclusive: 10%
19,COc1cc(NC(=Nc2nc(C)cc(C)n2)NC(C)=O)c(OC)cc1Cl,inconclusive: 18%
20,O=C(c1ccncc1)N1CCN(C(=O)c2ccccc2F)CC1,inconclusive: 15%
21,Cn1c(CN2CC[C@H](c3nnc(C(C)(C)C)o3)C2)nc2ccccc21,inactive

# Of the compounds above, 4 contain a thiophene ring, fused or not:
row,SMILES,inhibition
3,Cc1nc(N2CCN(c3ccc(F)cc3)CC2)c2c(C)c(C)sc2n1,inactive
6,COc1cc2c(cc1OC)C(C(=O)NC1CCCCCC1)C(c1cccs1)N(C)C2=O (stereo not given),inactive
17,Cc1ccc(C2CC(c3cccs3)=NN2C(=O)c2ccc(Br)o2)cc1 (stereo not given),inconclusive: 28%
18,CCOc1ccc(-n2c(=O)c3sccc3n(CC(=O)C(C)(C)C)c2=O)cc1,inconclusive: 18%
